The other results are listed elsewhere or left out. The main result of the screen is listed elsewhere. These columns were measured beside it and carry no call. Compounds called inactive in the main read-out are mostly missing here. The note in brackets gives the kind of curve behind each potency; many fits are weak.
Assay: qHTS Assay for Lipid Storage Modulators in Drosophila S3 Cells;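 on cell number change: cells counted by Cell Tracker Red CMTPX staining in the red channel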
Details: BODIPY lipid droplet fluorescence, 18-24 h; for cell number change: measured here: cell count max response, cells fed with added oleic acid
Method in brief: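 Drosophila S3 cells got compounds at several concentrations plus oleic acid (400 uM solution). Laser-scanning cytometry with 488 nm excitation read lipid droplets at 500-530 nm and cells at 575-640 nm. Percent activity was relative to 20 uM Triacsin C.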

[1] = measured here: lipid fluorescence (Fed channel) AC50, cells fed with added oleic acid
[2] = measured here: cell number channel AC50, cells fed with added oleic acid

| Structure (SMILES) | cell number change | AC50 [1] | AC50 [2] |
| --- | --- | --- | --- |
| COc1ccc(C(=O)N/C(=C\c2ccco2)C(=O)NCc2cccnc2)cc1 | 9.01% | 4.61 µM [falling, single point] |  |
| O=C(Cc1ccccc1)Nc1nnc(SCC(=O)NC2CCCC2)s1 | -64.6% | 0.461 µM [falling, full curve] | 4.61 µM [falling, full curve] |
| Cc1nc(SCC(=O)NCc2ccco2)c2c(C)c(C)sc2n1 |  | 2.06 µM [rising, partial curve] | 0.651 µM [rising, full curve, poor fit] |
| Cc1ccc(S(=O)(=O)N2CCC(C(=O)NCC3CCCO3)CC2)cc1 (stereo not drawn) |  | 29.1 µM [falling, single point] |  |
| FC(F)Oc1ccc(NC(=S)NC23CC4CC(CC(C4)C2)C3)cc1 | -2.56% | 29.1 µM [falling, single point] |  |
| CCOc1ccc(/C(CC)=N/NC(=O)C2(C)CC2(Br)Br)cc1 (stereo not drawn) |  | 0.731 µM [rising, partial curve] |  |
| Cc1cc(C)cc(NC(=O)Cn2nnc(C(=O)NCc3cccs3)c2N)c1 | -7.96% | 3.26 µM [rising, full curve] |  |
| Cc1cc(C2=NNC(=NCc3ccccc3)SC2)c(C)n1-c1c(C)n(C)n(-c2ccccc2)c1=O | 6.28% | 0.0651 µM [rising, full curve, poor fit] |  |
| Cc1cccc(OCc2nnc(SCC(=O)c3cccs3)n2C)c1C | 70.4% | 13 µM [rising, partial curve] | 29.1 µM [rising, single point] |
| CCOC(=O)/C(=C/C=C1\Sc2cc(OCC)c(OCC)cc2N1CC)C(C)=O | -90.4% |  |  |
| O=C(NNC(=S)NCc1ccco1)c1ccccc1Br | -0.0802% |  |  |
| CCOC(=O)C1=C(N)N(c2ccc(N3CCCCC3)cc2)C(=O)C1 | -0.595% |  |  |
| Cc1noc(C)c1COc1cccc(C(=O)NCCc2c[nH]c3ccccc23)c1 | -29.9% | 29.1 µM [falling, single point] |  |
| O=C(Nc1ccc(F)c(Cl)c1)c1cc(-c2ccco2)on1 | 9.58% |  |  |
| Cc1ccc(NC(=S)NCCCN2CCOCC2)cc1 | 52.3% |  | 20.6 µM [rising, partial curve] |
| Sc1nnc(-c2ccc(Cl)cc2)n1Cc1ccccc1 | 46.2% | 18.4 µM [rising, partial curve, poor fit] | 23.1 µM [rising, partial curve, poor fit] |
| COCC(=O)OCC(=O)N1N=C(c2ccc(Cl)cc2)CC1c1ccco1 (stereo not drawn) | -13.3% | 4.11 µM [falling, partial curve, poor fit] |  |
| COc1ccc(Cl)cc1CNCCCSc1ncccn1 | -2.46% |  | 0.517 µM [rising, single point] |
| Cc1c(O)ccc(/C=N/Nc2ncccc2[N+](=O)[O-])c1O | 18.6% |  |  |
| Cc1ccccc1N=C1c2ccccc2C(=O)C1[N+](=O)[O-] (stereo not drawn) | -1.44% |  |  |
| C=CCNC(=O)C(=O)NCC1CCCN1S(=O)(=O)c1cccs1 (stereo not drawn) | 17.7% |  |  |

| Structure (SMILES) | cell number change | AC50 [1] | AC50 [2] |
| --- | --- | --- | --- |
| O=C(NCC1CCCO1)c1cc2ccccc2nc1Cl (stereo not drawn) | -19.3% |  |  |
| C/C(=N\NC(=O)c1cccc(S(=O)(=O)N2CCOCC2)c1)c1ccc(C#N)cc1 | -30.7% | 0.58 µM [falling, single point] | 29.1 µM [falling, single point] |
| O=C1CC[C@H](N2C(=O)c3ccccc3C2=O)C(=O)N1 |  | 0.411 µM [falling, single point] |  |
| Cc1oc2cc3oc(=O)c(CCC(=O)NCCCn4ccnc4)c(C)c3cc2c1C | 9.39% | 0.0651 µM [rising, full curve, poor fit] |  |
| Cc1ccc(OCC(=O)NC2CCS(=O)(=O)C2)c([N+](=O)[O-])n1 (stereo not drawn) | -18.5% |  | 0.184 µM [falling, full curve, poor fit] |
| Cc1cc2ccccc2c(=O)n1CC(=O)NCC(=O)N1CCCC(C)C1 (stereo not drawn) | -31.5% | 0.13 µM [falling, full curve, poor fit] | 0.103 µM [falling, full curve, poor fit] |
| O=c1[nH]c(CSc2ncnc3sccc23)nc2ccccc12 | 9.84% | 1.64 µM [rising, full curve, poor fit] |  |
| CCCC(C(=O)NCc1ccco1)N(CC1CCCO1)C(=O)CNS(=O)(=O)c1ccc(F)cc1 (stereo not drawn) | 9.24% |  | 0.00411 µM [rising, full curve, poor fit] |
| CN(Cc1cccc(-n2cccn2)c1)Cc1cn(C)nc1-c1ccccc1F | 24.9% |  |  |
| Cc1cc2cccc(C)c2nc1SCC(=O)NC1CCCCC1 | 11.5% | 29.1 µM [falling, single point] |  |
| COc1ccc(N2CCN(C(c3cccs3)c3nnnn3C3CCCC3)CC2)cc1 (stereo not drawn) | 1.17% |  |  |
| COC(=O)c1sccc1NC(=O)c1ccco1 |  | 5.8 µM [rising, partial curve] |  |
| Cc1ccc(C(=O)NC2CCCC(C)C2C)cc1S(=O)(=O)N1CCCCC1 (stereo not drawn) |  |  | 0.13 µM [falling, full curve, poor fit] |
| O=C(Nc1ccccc1Cl)C1C2CCC3C(CCC21)C3(Cl)Cl (stereo not drawn) | 26.9% | 9.2 µM [rising, partial curve] | 3.66 µM [rising, partial curve, poor fit] |
| CCCC[C@@H]1CNC(=S)N1CCc1cccc2ccccc12 | 13.9% | 29.1 µM [rising, single point] |  |
| CCN(CC)S(=O)(=O)c1ccc2[nH]cc(C(=O)NCCc3ccccc3)c(=O)c2c1 |  | 2.59 µM [rising, partial curve] | 1.84 µM [rising, partial curve] |
| COc1ccc(C2CC(=O)C3=C(C2)Nc2ncnn2C3c2ccccc2C)cc1 (stereo not drawn) | 35.8% | 0.00517 µM [falling, full curve, poor fit] | 7.31 µM [rising, partial curve, poor fit] |
| CC(=O)CC(=O)Nc1ccn(-c2ccccc2)n1 | -8.79% | 16.4 µM [rising, single point] |  |
| CCOC(=O)C1CCN(C(=O)c2ccc(OCC(=O)Nc3ccc(OCC)cc3)c(OC)c2)CC1 | 19.8% |  |  |
| COc1ccccc1-c1nnc(SCC(=O)Nc2oc(C)c3c(C)n[nH]c(=O)c23)n1C |  |  | 6.51 µM [falling, single point] |
| CCCc1c(C(=O)N/N=C/c2ccccc2OCc2ccc(F)cc2)nnn1-c1nonc1N | 7.25% | 29.1 µM [rising, single point] |  |

Gathered by group: the compounds so far with an NH in an aromatic ring (four)

| Structure (SMILES) | cell number change | AC50 [1] | AC50 [2] |
| --- | --- | --- | --- |
| Cc1noc(C)c1COc1cccc(C(=O)NCCc2c[nH]c3ccccc23)c1 | -29.9% | 29.1 µM [falling, single point] |  |
| O=c1[nH]c(CSc2ncnc3sccc23)nc2ccccc12 | 9.84% | 1.64 µM [rising, full curve, poor fit] |  |
| CCN(CC)S(=O)(=O)c1ccc2[nH]cc(C(=O)NCCc3ccccc3)c(=O)c2c1 |  | 2.59 µM [rising, partial curve] | 1.84 µM [rising, partial curve] |
| COc1ccccc1-c1nnc(SCC(=O)Nc2oc(C)c3c(C)n[nH]c(=O)c23)n1C |  |  | 6.51 µM [falling, single point] |

Following part.

| Structure (SMILES) | cell number change | AC50 [1] | AC50 [2] |
| --- | --- | --- | --- |
| CC1CCCC(NC(=O)c2cc(S(=O)(=O)N3CCCCC3)ccc2Cl)C1C (stereo not drawn) | -15.9% | 6.51 µM [falling, single point] | 6.51 µM [falling, single point] |
| CC(C)(C)c1[nH]nc2c1C(c1ccsc1)C(C#N)=C(N)O2 (stereo not drawn) | -6.99% | 0.82 µM [falling, full curve, poor fit] |  |
| O=C(Cc1ccccc1)NCCc1c[nH]c2ccccc12 | 4.72% |  | 0.0517 µM [rising, full curve, poor fit] |
| O=S(=O)(Cc1ccccc1Cl)c1ncn[nH]1 | -22.6% | 29.1 µM [rising, single point] |  |
| CCCCn1c(N)c(N2CCOCC2)c(=O)n(CC(=O)NC(C)c2ccccc2)c1=O (stereo not drawn) | 26.2% |  | 0.517 µM [falling, full curve] |
| Nn1c(SCC(=O)Nc2ccc3c(c2)OCO3)nnc1C(F)(F)F | -3.38% |  |  |
| O=C(NCCN1CCN(C(=O)c2ccc(F)cc2)CC1)c1ccc(F)cc1 | -7.43% | 29.1 µM [rising, single point] |  |
| Cc1cc(C(=O)N2CCN(Cc3ccccc3)CC2)ccc1[N+](=O)[O-] | -14.4% | 4.11 µM [falling, single point] |  |
| COc1ccc(C(=O)NC(=S)NNC(=O)c2ccc(O)cc2)cc1[N+](=O)[O-] | 4.2% |  |  |
| CCCCN(C)C(=O)Cn1nc(-c2ccc(Cl)cc2)ccc1=O | -17% |  |  |
| CCC(=O)c1c(CC)c2n3c1CC[C@H]3CCC2 | -16% | 29.1 µM [rising, single point] |  |
| N=c1c(S(=O)(=O)c2ccc(Cl)cc2)cc2c(=O)n3ccccc3nc2n1CCN1CCOCC1 |  | 0.461 µM [rising, full curve] | 0.411 µM [rising, full curve] |
| Cc1ccc(C)c(S(=O)(=O)Nc2ccccc2C(=O)Nc2ccc(S(=O)(=O)Nc3ncccn3)cc2)c1 | 23.6% | 16.4 µM [rising, partial curve] |  |
| Cc1ccccc1NS(=O)(=O)c1ccc(C(=O)NCC(c2ccco2)N(C)C)cc1 (stereo not drawn) | 31.3% |  | 2.91 µM [rising, single point] |
| CN(CC1CCCN(CCc2ccc(Cl)cc2)C1)C(=O)c1ccoc1 (stereo not drawn) | 42.4% | 29.1 µM [rising, single point] | 29.1 µM [rising, single point] |
| O=C(c1cc2ccc([N+](=O)[O-])cc2oc1=O)N1CCOCC1 | -59.2% | 0.651 µM [falling, full curve, poor fit] | 32.6 µM [falling, partial curve, poor fit] |
| Cc1ccsc1C(=O)NNC(=O)c1csc(N2CCOCC2)n1 | -6% |  |  |
| O=C(NCc1cccnc1)C1CC(=O)N(C2CCCCC2)C1 (stereo not drawn) | 9.06% | 0.13 µM [rising, full curve, poor fit] | 0.13 µM [rising, full curve, poor fit] |
| CC1(C)OC(=O)N(c2ccccc2)C12C=Cc1cc(Br)ccc1O2 (stereo not drawn) | -18.4% |  |  |
| CCN(CC(=O)Nc1ccc2c(c1)OCCO2)C(=O)CCc1ccccc1Cl | -7.7% | 0.731 µM [rising, full curve] |  |
